# From article doi:10.1101/748574
# Protein sequences, listed by entry. Tags and fused reporters are not part of them. Residues count along the entry.
# UniProt Q68DV7, residues 24-783: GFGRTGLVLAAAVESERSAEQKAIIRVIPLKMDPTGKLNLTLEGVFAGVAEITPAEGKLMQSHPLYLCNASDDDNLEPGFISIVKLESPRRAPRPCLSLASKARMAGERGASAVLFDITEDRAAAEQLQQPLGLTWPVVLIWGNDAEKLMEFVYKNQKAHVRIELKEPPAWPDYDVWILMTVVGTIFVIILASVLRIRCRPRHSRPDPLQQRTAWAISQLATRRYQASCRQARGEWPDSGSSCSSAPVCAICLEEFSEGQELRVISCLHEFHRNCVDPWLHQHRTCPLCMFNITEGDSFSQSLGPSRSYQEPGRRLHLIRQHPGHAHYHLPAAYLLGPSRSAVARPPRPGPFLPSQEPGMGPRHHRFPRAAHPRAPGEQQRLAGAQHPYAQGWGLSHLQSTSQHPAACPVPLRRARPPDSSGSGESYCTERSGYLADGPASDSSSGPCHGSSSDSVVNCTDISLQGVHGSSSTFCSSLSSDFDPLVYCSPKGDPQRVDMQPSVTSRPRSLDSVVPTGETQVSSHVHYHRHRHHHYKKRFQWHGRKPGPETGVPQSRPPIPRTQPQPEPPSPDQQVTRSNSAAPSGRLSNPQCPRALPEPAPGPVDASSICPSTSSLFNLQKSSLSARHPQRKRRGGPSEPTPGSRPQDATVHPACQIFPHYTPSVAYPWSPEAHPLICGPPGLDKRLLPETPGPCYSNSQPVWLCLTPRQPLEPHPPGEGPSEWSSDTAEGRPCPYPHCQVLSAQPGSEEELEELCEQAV
# UniProt P49674: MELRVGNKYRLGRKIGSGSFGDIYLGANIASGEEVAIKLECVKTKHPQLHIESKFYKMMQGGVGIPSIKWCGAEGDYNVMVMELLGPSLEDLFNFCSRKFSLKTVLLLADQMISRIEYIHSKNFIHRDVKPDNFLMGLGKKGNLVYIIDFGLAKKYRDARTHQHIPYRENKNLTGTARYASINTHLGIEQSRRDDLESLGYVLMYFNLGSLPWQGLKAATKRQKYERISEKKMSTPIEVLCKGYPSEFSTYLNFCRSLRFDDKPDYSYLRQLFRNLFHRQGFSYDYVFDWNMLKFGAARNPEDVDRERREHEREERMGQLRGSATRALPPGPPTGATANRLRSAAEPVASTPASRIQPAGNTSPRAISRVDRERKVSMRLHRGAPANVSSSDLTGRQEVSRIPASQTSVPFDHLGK
# UniProt O15169: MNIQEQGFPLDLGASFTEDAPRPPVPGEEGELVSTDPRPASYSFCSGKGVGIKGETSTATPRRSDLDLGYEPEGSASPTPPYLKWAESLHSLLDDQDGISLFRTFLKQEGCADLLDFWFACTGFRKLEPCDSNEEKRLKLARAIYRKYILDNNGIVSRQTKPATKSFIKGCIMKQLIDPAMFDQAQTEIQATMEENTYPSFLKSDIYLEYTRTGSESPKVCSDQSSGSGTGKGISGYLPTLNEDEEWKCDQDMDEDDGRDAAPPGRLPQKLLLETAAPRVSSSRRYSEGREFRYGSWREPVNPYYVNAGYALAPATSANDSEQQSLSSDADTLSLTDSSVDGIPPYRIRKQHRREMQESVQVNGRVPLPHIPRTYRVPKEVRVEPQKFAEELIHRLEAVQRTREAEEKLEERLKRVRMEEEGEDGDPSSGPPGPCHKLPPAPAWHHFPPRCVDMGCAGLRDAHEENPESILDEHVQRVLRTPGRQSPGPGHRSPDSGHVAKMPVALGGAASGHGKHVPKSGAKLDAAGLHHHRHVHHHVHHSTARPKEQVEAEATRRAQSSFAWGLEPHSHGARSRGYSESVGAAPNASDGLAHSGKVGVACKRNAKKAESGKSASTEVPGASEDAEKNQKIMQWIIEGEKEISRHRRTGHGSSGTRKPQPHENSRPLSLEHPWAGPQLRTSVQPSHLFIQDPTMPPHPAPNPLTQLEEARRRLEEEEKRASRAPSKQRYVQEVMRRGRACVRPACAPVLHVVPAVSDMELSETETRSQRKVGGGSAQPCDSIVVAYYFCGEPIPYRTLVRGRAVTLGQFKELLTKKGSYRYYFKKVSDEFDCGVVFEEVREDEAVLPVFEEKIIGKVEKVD
# These are yes or no findings as the source states them, for the method shown. In cells and extracts the contact can be indirect. These calls come from enrichment with a bait or labelling near it, and not all partners need be listed.
# Molecular target: RNF43-BirA*-HA fusion protein (human) (UniProt Q68DV7)
# Assay: proximity labelling
row,binding,Substance
1,binds,"Casein kinase 1 epsilon, endogenous (from UniProt P49674 1-416) (enzyme)"
2,binds,"Axin1, endogenous (from UniProt O15169 1-862)"
